Where two headings read alike, the source gives them in different places. No constants are given. Whether binding was seen depends on the method and setting. In cells and extracts the contact can be indirect. Here binding means that the protein was enriched with, or labelled near, the bait; the list need not be complete. For some assays here: A no says only that the protein was not detected with the bait. For some assays here: Where a sequence is shown, tags or fusion partners need not be part of it.

The record followed here is article PMC6603209.

What all share (test): affinity purification with mass spectrometry; anti-FLAG-M2-agarose pull-down of 3xFLAG-tagged PII from DDM-solubilised Synechocystis extracts (IP buffer 25 mM MES/NaOH pH 6.5, 5 mM CaCl2, 10 mM MgCl2, 20% glycerol, 0.04% DDM in washes), elution with 3xFLAG peptide, nanoLC-MS/MS, label free quantification against the non-transformed wild type; cells grown with nitrate or with urea; two replicates

Experiment [1] addresses T1, N-terminal 3xFLAG-tagged PII fusion protein (Synechocystis sp. PCC 6803).
T1 sequence: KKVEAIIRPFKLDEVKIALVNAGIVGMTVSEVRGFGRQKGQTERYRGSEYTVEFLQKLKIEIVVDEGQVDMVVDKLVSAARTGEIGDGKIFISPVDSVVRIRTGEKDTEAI

For experiment [2] the target is unchanged. The source holds these as a separate data set.
In experiment [3] the target is C-terminal 3xFLAG-tagged PII fusion protein (Synechocystis sp. PCC 6803).

Consider “PII phosphatase PphA (from UniProt P73626) (enzyme)”, for which the binding result in experiment [1] is recorded as “binds”.

For the molecule PipX, the binding entry in experiment [1] is “binds”. As for UreC (from UniProt P73061 1-569), the binding result in experiment [1] was “binds”. With Ssr0692 (from UniProt P74791), the binding entry in experiment [1] was “binds”. The same measure, in the same setting: the same measure for UrtE (from UniProt Q55753): “binds”.

UrtB (from UniProt P73350): in experiment [1], the binding entry was “binds”. As to UrtA, the binding result in experiment [1] is listed as “binds”. As to NrtD (from UniProt P73449), the binding result in experiment [1] is “binds”. On to UrtC (from UniProt P73351), for which, in experiment [1], the binding entry was “binds”.

B1: NrtA (protein, UniProt P73452 29-446)
chain: CTSPTTTSTGTGTGSSTDQAISPLVEGENAPEVTTAKLGFIALTDAAPLIIAKEKGFYAKYGMPDVEVLKQASWGTTRDNLVLGSASGGIDGAHILTPMPYLITMGTVTDGKPTPMYILARLNVNGQGIQLGNNYKDLKVGTDAAPLKEAFAKVTDPKVAMTFPGGTHDMWIRYWLAAGGMEPGKDFSTIVVPPAQMVANVKVNAMESFCVGEPWPLQTVNQGVGYQALTTGQLWKDHPEKAFGMRADWVDQNPKAAKALLMAVMEAQQWCDQAENKEEMCQILSKREWFKVPFEDIIDRSKGIYNFGNGQETFEDQEIMQKYWVDNASYPYKSHDQWFLTENIRWGYLPASTDTKAIVDKVNREDLWREAAQALEVPADQIPSSPSRGIETFFDGITFDPENPQAYLDSLKIKSIKA
Consider B1, for which the binding entry is reported as “binds” in experiment [2] and “no binding” in experiment [3].

B2: UreD (protein, UniProt P73047 1-270)
chain: MLSASTVNPSAPWQANLWLRYDRPGHRTRMVECLVQAPLKVQRSFYPDDTGQCQTMLLHTGGGMVGGDRLGYDIVLEAQSDVCFTSASAGKIYRSLGPWSEQTVNLEVRVGASVLWCPQETIIFDQARYQQNFCIKLQEQARFKGWEIVRLGRTARGEKFTQGHWRSSWEIWQGDKLIWGERQQLIGSEQLYESPNALAGFTCLGTYVDLSRSFDQDLVHQAQEIIHSQGRSPQFGLTLTATQGLIARYRGNSTQEVKDIFTQLSQVISP
For the molecule B2, in experiment [2], the binding result is “binds”.

B3: Sll0944 (protein, UniProt P77971 1-164)
chain: MQCLGKIFLSPGTKPESKNLIVIIFTADRDQRVLALSRIVKRPFFNKNPMPAMSQILDPIPNNQPSALFCCYVNATNQIQVARITNVPNWYFERVVFPGQRLVFEAVPSAQLEIHTGMMASSIISDTIPCEQLSIDPDGLAAGGFISPEKEHESEDMTSQSLVA
For B3, the binding result in experiment [2] and in experiment [3] was “binds” each time.

B4: UreF (protein, UniProt P73327 1-236)
chain: MLSGSAQLKLLQLVSPTLPVGAYNYSEGLEWLIERGNITNADTLGAWITQELCRGSITVDTAIMVRAHRLAGQMPKTDILPSPTLKHLSYWNQWLTATRESRELREQSLQMGGSLRKLLLDLEPTVQSWFEPIPPTEPCNYAIAFGLGAAFWGIDLHQSGLGYLHSWANNLISAGLRLIPLGQTAGQKLLLHLTPTILHQWQQILLLGDDDLYSCSWGLALASMGHESQYTRLFRS
For B4, in experiment [2], the binding entry is listed as “binds”.

B5: UreG (protein, UniProt P72955 1-206)
chain: MAQTPLRIGIAGPVGSGKTALLEALCKALRQKYQLAVVTNDIYTQEDAQFLVRAEALTPDRILGVETGGCPHTAIREDASLNLAAIADLEARFMPLDMVFLESGGDNLAATFSPELVDLTLYVIDVAAGDKIPRKGGPGITKSDLLVINKIDLAPMVGADLGIMDRDAKKMRGEKPFVFTNLKTATGLSTVVDFVEHYLPTKVLAS
As to B5, the binding result in experiment [2] is given as “binds”.

B6: NrtB (protein, UniProt P73451 1-275)
chain: MASSTAGLRPRRKKNPLSFIYSPKVIRPAVAIAVLLVVWQILCSGEGSNLPSPVQVLEQTYPLILNPFFDNGGTDKGLGIQIFASLTRVAVGFSAAAVVGIALGILIGSSKFMYDALDPIFQVLRTIPPLAWLPIALAALQEAEPSAIFVIFITAIWPIVINTTVGAQQVPQDYRNVSRVLKLSKSQYFFNILFPAAVPYIFTGLRIGIGLSWLAIVAAEMLIGGVGIGFFIWDAYNSSLISEIIIALIYVGIVGLLLDRFIAFLESLVVPAEQK
For B6, the binding result in experiment [2] and in experiment [3] was “binds” each time.

B7: Amt1 ammonium permease (protein, UniProt P54147 1-507)
chain: MSNSILSKLNVGERSPVNRTHSSRTEAEKSSLFRFVRRKINSPWLACVPLTALIVAIWNAAAIAQDTEIVNITVETVNENVATLQGTLNAIWILIAAILVIFMNAGFGMLETGLCRQKNAVNILTKNLIVFALATIAYWAIGFSLMFGSSGNPFVGFGGFFLSGDHTNYGLSPFPEGLPVAVFFLFQVAFSATAATIVSGAVAERIKFNEFLIFSVLLVGIAYPITGHWVWDAGGWLYTMGFMDFAGSTVVHSVGGWAALAGAFLLGPRLGKFVDGRPGAIPGHNMGFAMLGCLILWIGWFGFNPGSQLAADQACAYIAVTTNLAASAGGLTATFTSWLKDGKPDLTMVINGVLAGLVGITAGCAGVSYWGSVIIGGIAGILVVYSVAFFDKIKIDDPVGAISVHLVNGVWGTLAVGFFNMEKGLFYGGGINQLIIQIVGILAIGAFTAIFSFVVWAILKQTMGIRVSGEEEMIGLDIGEHGMEAYTGFVKETDSFGSAVSGATVPE
For the molecule B7, the binding result in experiment [2] and in experiment [3] was “binds” in each case.

B8: UreA (protein, UniProt P73796 1-100)
chain: MQLSPQEKDKLLIFTASLVAERRKARGLKLNYPEAVAYISAAILEGARDGRTVAELMNYGATLLSRDEVMEGVPEMLPEVQVEATFPDGTKLVTVHEPIR
Turning to B8, the binding entry in experiment [2] is on record as “binds”; in experiment [3], “no binding”.

B9: UreB (protein, UniProt P74386 1-105)
chain: MATMIPGEIITPEGDIELNVGRSTCTINVANTGDRPIQVGSHYHFYEVNAALQFDRDLAKGMRLDIPAGTAVRFEPGDEKNVNLVAYAGSREIYGFNGLVNGPLE
For B9, the binding entry is recorded as “binds” in experiment [2] and “no binding” in experiment [3].

B10: NrtC (protein, UniProt P73450 1-670)
chain: MMPFIEIDHVDRIFPLPDGGRYIALKNIELKISQGEFISLIGHSGCGKSTLLNMISGLDKPTFGGVIMEGKEITEPGPERMVVFQNYSLLPWLTVRQNIALAVNRVLRDLPKPEQEKIIDDNIALVGLQRAAHKRPGELSGGMKQRVAIARALSTRPKVLLLDEPFGALDALTRGNLQERLMEIVQESGVTCIMVTHDVDEALLLSDRVVMLTTGPEAHIGQILEVPIPRPRHRLEVVNHPSYYALRGEMVYFLNQQKRAKKVGAVSQFAEAMGGNGLEKINLDLGFIPLTDCAPLVVAKEKGFFQKHGLEQVNLVKEPSWQAIADGIRERRLDGAQMVAGMPLALTLGMGGKTPLPMVTAMVMSRNGNAITLSKKFAEAGVKTLEDLRLKLAETPDQVSTLGMVHPASMQNLLLRYWLASGSIDPDQDINLMRLPPPQMVSNLEAGNIDGFCVGEPWNSYAVKQNLGYVIATDLDIWNGHPEKVLGMREEWVNKYPATHLALVKALLEACEYCDDRRHRQEILDYLALPQYVGTSTEYISPGFLTEYDQGNDAEAEMLLDFNQFYVKQSNYPSRSEGLWILTQLARWGYIDFPKNWVEIIERVRRPDLFGEACRHLGWPDLEGDHHNVSLFDGMVFTPNDPLGYIKRFTIHRDIQVTEILIDQIDQVNQ
As for B10, the binding result in experiment [2] and in experiment [3] was “binds” each time.
